# Measured values as given in doi:10.1101/645689.
# These are yes or no findings as the source states them, for the method shown. Binding seen in cells or lysates may run through a third protein. Some binding calls cover weakened binding; strength is not graded here.
# T1: OGDH, the E1 subunit of the α-ketoglutarate dehydrogenase complex, mouse (mouse (endogenous in DBA/2J liver)) (UniProt Q60597)
# T1 sequence: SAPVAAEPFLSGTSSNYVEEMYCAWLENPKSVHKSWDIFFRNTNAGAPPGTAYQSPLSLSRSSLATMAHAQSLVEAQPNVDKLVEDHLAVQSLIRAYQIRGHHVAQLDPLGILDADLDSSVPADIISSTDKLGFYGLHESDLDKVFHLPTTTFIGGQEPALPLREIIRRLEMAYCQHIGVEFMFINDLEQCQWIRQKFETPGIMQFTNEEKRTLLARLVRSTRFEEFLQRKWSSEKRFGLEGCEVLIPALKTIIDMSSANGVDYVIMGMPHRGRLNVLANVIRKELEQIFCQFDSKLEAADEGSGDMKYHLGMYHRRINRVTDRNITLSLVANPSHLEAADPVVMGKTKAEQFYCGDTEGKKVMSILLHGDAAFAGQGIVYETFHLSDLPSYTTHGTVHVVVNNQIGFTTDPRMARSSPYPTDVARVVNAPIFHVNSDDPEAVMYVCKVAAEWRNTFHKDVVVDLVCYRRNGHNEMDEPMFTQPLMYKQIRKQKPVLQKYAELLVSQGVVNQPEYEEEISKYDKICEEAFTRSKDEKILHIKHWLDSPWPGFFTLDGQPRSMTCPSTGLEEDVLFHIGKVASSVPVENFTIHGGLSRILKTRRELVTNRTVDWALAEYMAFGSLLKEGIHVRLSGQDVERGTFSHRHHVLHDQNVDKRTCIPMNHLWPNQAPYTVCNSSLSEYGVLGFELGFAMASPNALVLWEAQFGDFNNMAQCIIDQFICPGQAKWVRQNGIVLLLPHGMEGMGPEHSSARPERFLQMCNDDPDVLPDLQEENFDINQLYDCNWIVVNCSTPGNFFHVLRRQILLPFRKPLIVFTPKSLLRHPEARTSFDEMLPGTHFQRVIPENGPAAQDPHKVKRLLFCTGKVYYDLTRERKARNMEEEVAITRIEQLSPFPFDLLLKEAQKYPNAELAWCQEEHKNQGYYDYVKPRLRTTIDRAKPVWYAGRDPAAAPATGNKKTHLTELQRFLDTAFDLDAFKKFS
# T2: dihydrolipoyl succinyltransferase (DLST), E2 subunit, mouse (mouse (endogenous in DBA/2J liver)) (UniProt Q9D2G2)
# T2 sequence (chain, lipoic moiety (detected with an anti-lipoic acid antibody)): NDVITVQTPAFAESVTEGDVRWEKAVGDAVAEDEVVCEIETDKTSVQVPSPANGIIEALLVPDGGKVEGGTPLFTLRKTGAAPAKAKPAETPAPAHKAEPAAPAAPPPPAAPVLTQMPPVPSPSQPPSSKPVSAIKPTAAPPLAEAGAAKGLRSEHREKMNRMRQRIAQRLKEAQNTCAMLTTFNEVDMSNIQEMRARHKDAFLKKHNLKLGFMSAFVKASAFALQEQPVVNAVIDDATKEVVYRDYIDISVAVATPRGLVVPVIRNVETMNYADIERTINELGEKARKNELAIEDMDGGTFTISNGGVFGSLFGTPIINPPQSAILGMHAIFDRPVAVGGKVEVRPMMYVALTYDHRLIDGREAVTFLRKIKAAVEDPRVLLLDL
# Assays:
# [1] = target: T1, OGDH, the E1 subunit of the α-ketoglutarate dehydrogenase complex, mouse (mouse (endogenous in DBA/2J liver)); assay: co-IP
# [2] = target: T2, dihydrolipoyl succinyltransferase (DLST), E2 subunit, mouse (mouse (endogenous in DBA/2J liver)); assay: co-IP
Binder,binding [1],binding [2]
"dihydrolipoyl succinyltransferase (DLST), E2 subunit, mouse (enzyme, UniProt Q9D2G2 69-454, lipoic moiety (detected with an anti-lipoic acid antibody)) NDVITVQTPAFAESVTEGDVRWEKAVGDAVAEDEVVCEIETDKTSVQVPSPANGIIEALLVPDGGKVEGGTPLFTLRKTGAAPAKAKPAETPAPAHKAEPAAPAAPPPPAAPVLTQMPPVPSPSQPPSSKPVSAIKPTAAPPLAEAGAAKGLRSEHREKMNRMRQRIAQRLKEAQNTCAMLTTFNEVDMSNIQEMRARHKDAFLKKHNLKLGFMSAFVKASAFALQEQPVVNAVIDDATKEVVYRDYIDISVAVATPRGLVVPVIRNVETMNYADIERTINELGEKARKNELAIEDMDGGTFTISNGGVFGSLFGTPIINPPQSAILGMHAIFDRPVAVGGKVEVRPMMYVALTYDHRLIDGREAVTFLRKIKAAVEDPRVLLLDL",binds,–
"dihydrolipoyl dehydrogenase (DLD), E3 subunit, mouse (enzyme, UniProt O08749 36-509) ADQPIEADVTVIGSGPGGYVAAIKSAQLGFKTVCIEKNETLGGTCLNVGCIPSKALLNNSHYYHMAHGKDFASRGIEIPEVRLNLEKMMEQKHSAVKALTGGIAHLFKQNKVVHVNGFGKITGKNQVTATKADGSTQVIDTKNILVATGSEVTPFPGITIDEDTIVSSTGALSLKKVPEKLVVIGAGVIGVELGSVWQRLGADVTAVEFLGHVGGIGIDMEISKNFQRILQRQGFKFKLNTKVTGATKKSDGKIDVSVEAASGGKAEVITCDVLLVCIGRRPFTQNLGLEELGIELDPKGRIPVNNRFQTKIPNIYAIGDVVAGPMLAHKAEDEGIICVEGMAGGAVHIDYNCVPSVIYTHPEVAWVGKSEEQLKEEGIEFKIGKFPFAANSRAKTNADTDGMVKILGHKSTDRVLGAHILGPGAGEMVNEAALALEYGASCEDIARVCHAHPTLSEAFREANLAAAFGKPINF",no binding,binds
"OGDH, the E1 subunit of the α-ketoglutarate dehydrogenase complex, mouse (enzyme, UniProt Q60597 41-1023) SAPVAAEPFLSGTSSNYVEEMYCAWLENPKSVHKSWDIFFRNTNAGAPPGTAYQSPLSLSRSSLATMAHAQSLVEAQPNVDKLVEDHLAVQSLIRAYQIRGHHVAQLDPLGILDADLDSSVPADIISSTDKLGFYGLHESDLDKVFHLPTTTFIGGQEPALPLREIIRRLEMAYCQHIGVEFMFINDLEQCQWIRQKFETPGIMQFTNEEKRTLLARLVRSTRFEEFLQRKWSSEKRFGLEGCEVLIPALKTIIDMSSANGVDYVIMGMPHRGRLNVLANVIRKELEQIFCQFDSKLEAADEGSGDMKYHLGMYHRRINRVTDRNITLSLVANPSHLEAADPVVMGKTKAEQFYCGDTEGKKVMSILLHGDAAFAGQGIVYETFHLSDLPSYTTHGTVHVVVNNQIGFTTDPRMARSSPYPTDVARVVNAPIFHVNSDDPEAVMYVCKVAAEWRNTFHKDVVVDLVCYRRNGHNEMDEPMFTQPLMYKQIRKQKPVLQKYAELLVSQGVVNQPEYEEEISKYDKICEEAFTRSKDEKILHIKHWLDSPWPGFFTLDGQPRSMTCPSTGLEEDVLFHIGKVASSVPVENFTIHGGLSRILKTRRELVTNRTVDWALAEYMAFGSLLKEGIHVRLSGQDVERGTFSHRHHVLHDQNVDKRTCIPMNHLWPNQAPYTVCNSSLSEYGVLGFELGFAMASPNALVLWEAQFGDFNNMAQCIIDQFICPGQAKWVRQNGIVLLLPHGMEGMGPEHSSARPERFLQMCNDDPDVLPDLQEENFDINQLYDCNWIVVNCSTPGNFFHVLRRQILLPFRKPLIVFTPKSLLRHPEARTSFDEMLPGTHFQRVIPENGPAAQDPHKVKRLLFCTGKVYYDLTRERKARNMEEEVAITRIEQLSPFPFDLLLKEAQKYPNAELAWCQEEHKNQGYYDYVKPRLRTTIDRAKPVWYAGRDPAAAPATGNKKTHLTELQRFLDTAFDLDAFKKFS",–,binds
